Results from PubChem BioAssay AID1458 (National Center for Advancing Translational Sciences (NCATS), 2008).
In all, about 210,000 compounds went through this assay and about 5,900 (2.8%) were called active. Not shown: some 5% with an inconclusive outcome. The call rests on the fitted dose curve; in most records, active means well fitted activation curve with a large enough effect; inconclusive means small, poorly fitted or top-dose-only effect; inactive means no such curve, though single readings can be large or run the other way. This is a selection; strong and weak results do not stand in their true shares. Entries without a call were filed so in the source.
Potency means the concentration at half of the fitted maximal effect.

Assay: qHTS Assay for Enhancers of SMN2 Splice Variant Expression; further: nearly all actives have a fitted effect of over 55% in size; on activity change, positive = activation: % of control where 0% means no effect
Conditions: HEK293 SMN2-luciferase splicing reporter, luminescence, 30-36 h; activity change, positive = activation: at 46.1 µM (top of the series) unless noted
Procedure, shortened: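 qHTS luciferase splicing reporter: luminescence rises when SMN2 exon 7 is included in transfected HEK293 cells. Compound exposure lasted 30-36 h at 37C, with 4.5 mM final sodium butyrate as control, followed by a ONE-Glo read.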
Compound `O=C(NC12CC3CC(CC(C3)C1)C2)N1CCC(O)CC1` has an activity change, positive = activation of 44.9%. With `COc1ccccc1/C=N/Nc1nncc2ccccc12` the Potency was active: 10 µM. `C=CCn1c(Cc2ccc(OC)cc2)nnc1SCC(N)=O` showed an activity change, positive = activation of 54.5%. `CCOc1cc(C(=O)Nc2ccc(N3CCN(S(C)(=O)=O)CC3)cc2)cc(OCC)c1OCC` gave an activity change, positive = activation of 36.5%. `O=C(NCc1ccccc1)c1noc2c1CCCC2` showed an activity change, positive = activation of 38.6%. `S=c1[nH]nc(Nc2ccccc2Cl)s1` showed an activity change, positive = activation of 58.6%. Work on `NC(=O)CN1CCN(S(=O)(=O)c2ccc(Br)cc2)CC1` yielded an activity change, positive = activation of -17.6%. `Cc1oc(CSCC2CCCO2)cc1C(=O)O` (stereo unspecified) gave an activity change, positive = activation of 35.4%. In the case of `COc1ccc(S(=O)(=O)n2cnc3cc(C)c(C)cc32)cc1C`, the activity change, positive = activation is reported as -46%. For `Cc1cc(N2CCN(c3cccc(C(F)(F)F)c3)CC2)n2ncnc2n1`, the activity change, positive = activation was -32.7%. In the case of `O=C(CCC(=O)N1CCc2ccccc21)Nc1ccccc1`, the activity change, positive = activation is reported as 32.7%. For `COc1cccc(NC(=O)CSc2nnc(-c3cc(C)n(-c4ccccc4)c3C)o2)c1`, the “activity change, positive = activation” value was inactive: -42.5%. For `Cc1ccccc1-n1c(-c2ccncc2)n[nH]c1=S`, the activity change, positive = activation was 45%. For `CN(C)CCN=c1cc(-c2ccccc2)oc2ccc(Cl)cc12`, the Potency was active: 15.8 µM. `COc1ccccc1N1CCN(C(=O)Cn2nc(C(F)(F)F)c3c2CCC3)CC1` gave an activity change, positive = activation of 42%. In the case of `Cc1ccc(C2C3=C(CC(C)(C)CC3=O)Nc3onc(C)c32)cc1` (stereo unspecified), the activity change, positive = activation is reported as 10.5%. With `O=C(NCc1cccc(Br)c1)C1CCN(C(=O)c2sccc2-n2cccc2)CC1` the “activity change, positive = activation” value was inactive: -33.9%. In the case of `c1ccc2cc(OCc3nc4ccccc4[nH]3)ccc2c1`, the Potency is reported as active: 2.82 µM. In the case of `COc1ccc2[nH]c(C)c(CCN3C(=O)C4CC=CCC4C3=O)c2c1` (stereo unspecified), the “activity change, positive = activation” value is reported as inactive: -32.9%. Compound `CCCCCC(=O)NC(=S)Nc1cccc(C(C)=O)c1` has an activity change, positive = activation of 34.4%. In the case of `Cc1cc(Cl)c(S(=O)(=O)N2CCN(c3ccc(F)cc3)CC2)cc1OCC(=O)NC1CCCCC1`, the “activity change, positive = activation” value is reported as inactive: -77.5%. Compound `O=C(c1cnn2c(C(F)F)cc(-c3ccccc3)nc12)N1CCN2CCCC2C1` (stereo unspecified) has an activity change, positive = activation of 37.2%. For `CCn1cc(C(=O)NC2CCCCCC2)c2cc(OC)c(OC)cc2c1=O`, the “activity change, positive = activation” value was inactive: -18.1%. Compound `COc1ccc(C(=O)/C=C/c2cc(OC)c(O)c(OC)c2)c(F)c1` has an activity change, positive = activation of -98.5%. Work on `CCCCn1c(=O)[nH]c(=O)c2c1nc(-c1ccncc1)n2CCOC` yielded an activity change, positive = activation of 30.3%. For `CCCOC(=O)Cn1c(=O)c2cc3c(=O)n(CC(=O)OCCC)c(=O)c3cc2c1=O`, the activity change, positive = activation was 35.8%. In the case of `O=C(c1ccc(-n2c(SCc3cc(F)ccc3F)nc3ccccc3c2=O)cc1)N1CCOCC1`, the activity change, positive = activation is reported as -10.4%. For `COc1ccccc1C(=O)n1nc(-c2ccccc2)nc1NCc1ccco1`, the Potency was active: 12.6 µM. In the case of `COc1ccc(NC(=O)N2CCN(c3cccc(C(F)(F)F)c3)CC2)cc1`, the “activity change, positive = activation” value is reported as inactive: -40.3%. With `Cn1c(SCC(=O)N/N=C/c2ccc([N+](=O)[O-])s2)nnc1-c1ccccc1` the “activity change, positive = activation” value was inactive: -59.7%. With `COc1ccccc1Oc1ccc2c(c1)C(=O)N(c1ccc(O)cc1)C2=O` the activity change, positive = activation was 33%. With `CC(=O)Nc1cc(C(=O)NCCN2CCN(Cc3ccccc3)CC2)ccc1Sc1ccc(C)cc1` the “activity change, positive = activation” value was inactive: -37.8%. `Cc1nc(NC(=O)CSc2ccccc2N)sc1C` gave an activity change, positive = activation of 31.9%. With `CCN(CCNC(=O)C1CCCN(Cc2nc(-c3ccc(OC)cc3)oc2C)C1)c1ccccc1` (stereo unspecified) the “activity change, positive = activation” value was inactive: -33.2%. For `COCCNc1oc(-c2ccc(C)cc2)nc1C#N`, the Potency was active: 10 µM. For `COc1ccccc1NC(=S)N(Cc1ccc(Cl)cc1)CC1CCC(C(=O)O)CC1` (stereo unspecified), the activity change, positive = activation was -51.4%. For `N#CNC(N)=Nc1cccc(Cl)c1`, the activity change, positive = activation was 35.7%. Compound `C/C(=N/NC(=O)CNC(=O)c1ccccn1)c1ccccc1` has an activity change, positive = activation of -43.2%. In the case of `CCc1[nH]nc2c1C1(CCN(C(=O)c3ccccc3)CC1)C(C#N)=C(N)O2`, the activity change, positive = activation is reported as 29.3%. In the case of `O=C(N/N=C/c1cn(-c2ccccc2)nc1-c1cccs1)c1ccc(Cl)cc1`, the “activity change, positive = activation” value is reported as inactive: -51.9%. Work on `CCNC(=O)/C(=C/c1cccc([N+](=O)[O-])c1)NC(=O)c1ccc(C)cc1` yielded an activity change, positive = activation of 3.05%. With `CCOc1ccc(N(CC(=O)Nc2ccc(C)c(C)c2)S(=O)(=O)c2c(C)noc2C)cc1` the “activity change, positive = activation” value was inactive: -47%. `COc1ccccc1Oc1ccccc1C(=O)O` showed an activity change, positive = activation of 62.8%. Compound `Cc1[nH]c2ccccc2c1CC(=O)O` has an activity change, positive = activation of 72.4%. For `Cc1ccc(S(=O)(=O)N2CCC(C(=O)C3C(=O)CCCC3=O)CC2)cc1`, the activity change, positive = activation was 56.3%. Compound `COc1ccc(/C=C/c2nc3ccccc3n2Cc2ccc(OC)c(OC)c2)cc1` has an activity change, positive = activation of 105%. `O=C(COc1ccc(S(=O)(=O)N2CCCC2)cc1)NCCC1=CCCCC1` showed an activity change, positive = activation of 18.8%. For `O=C(c1ccc2c(=O)n3c(nc2c1)CCCCC3)N1CCN(C(c2ccccc2)c2ccccc2)CC1`, the “activity change, positive = activation” value was inactive: -41.7%. `COc1ccc(C(=O)NNC(=O)C(Cc2ccc(O)cc2)NC(=O)c2ccccc2NC(=O)c2ccc(OC)cc2)cc1` (stereo unspecified) gave an activity change, positive = activation of 32.9%. With `c1ccc(CCNc2ccnc3cc4ccccc4cc23)cc1` the “activity change, positive = activation” value was inactive: -65.8%. For `CCCCc1ccc(-c2ccc(C)cc2O)nc1`, the Potency was active: 22.4 µM. With `CCCOc1ccc(C(=O)NNC(=S)NC(=O)CC)cc1` the activity change, positive = activation was -89.3%. In the case of `O=C(OCc1ccc(F)cc1Cl)c1ccccn1`, the activity change, positive = activation is reported as 53.2%. In the case of `CC1CC(C)CN(CCOc2ccc(Cl)cc2Cl)C1` (stereo unspecified), the activity change, positive = activation is reported as 23%. For `CCSc1nnc(NC(=O)NC2CCCCC2)s1`, the activity change, positive = activation was 72.7%. In the case of `O=C(c1ccc2c(c1)N(Cc1ccccc1)C(=O)c1ccccc1S2=O)N1CCC(Cc2ccccc2)CC1` (stereo unspecified), the “activity change, positive = activation” value is reported as inactive: -46.4%. With `N=C(N)SCc1ccccn1` the activity change, positive = activation was -0.944%. For `CCN(CC)c1ccc(/C=N/NC(=O)c2cnccn2)cc1`, the Potency was active: 20 µM. With `COc1ccc(-c2nnc(SCc3ccccc3F)o2)cc1` the Potency was active: 11.2 µM. For `Cc1scc(C(=O)Nn2cnnc2)c1-c1ccccc1`, the activity change, positive = activation was 41.6%. For `CCCCOC(=O)c1ccc(O)cc1`, the Potency was “inactive”. With `CCCCN=C1NN=C(c2ccc3c(c2)OCCO3)CS1` the activity change, positive = activation was -39.9%. Compound `CCN(CC)CCCNC(=O)CSc1nc2nc(C)c(Cc3c(F)cccc3Cl)c(C)n2n1` has an activity change, positive = activation of -41%. `Cn1c(=O)n(CC(=O)NC2CCCCC2)c(=O)c2ccccc21` gave an activity change, positive = activation of 61.3%. `O=C(CCN1C(=O)c2ccccc2C1=O)NCc1ccco1` showed an activity change, positive = activation of 35.1%. With `CCn1c(C)nc2cc(-c3nc4n(n3)Cc3ccccc3-4)ccc21` the “activity change, positive = activation” value was inactive: -64.7%. Compound `CCOc1cc(CNc2ncc(-c3ccc(OC)cc3)n2C)ccc1O` has an activity change, positive = activation of 34.9%. `CCC1CCCCN1C(=S)Nc1ccc(OC(F)F)cc1` (stereo unspecified) showed an activity change, positive = activation of -57%. Compound `Cc1ccn2c(-c3csc(NCc4ccco4)n3)c(C)nc2c1` has an activity change, positive = activation of -31.2%. `CC(=O)c1c(C)[nH]c(C(=O)OC2CCOC2=O)c1C` (stereo unspecified) gave an activity change, positive = activation of 56.6%. In the case of `CCCCCCCCCc1nc2sc3c(c2c(=O)n1NC(=O)c1ccccc1[N+](=O)[O-])CC(C)(C)OC3`, the activity change, positive = activation is reported as -72.4%.
